# The other results are listed elsewhere or left out. Potency and affinity values are given separately. Where no call is shown, the source marks the result inconclusive.
# Protein sequences, listed by entry. Tags and fused reporters are not part of them.
# UniProt P08485, whole entry, looked up: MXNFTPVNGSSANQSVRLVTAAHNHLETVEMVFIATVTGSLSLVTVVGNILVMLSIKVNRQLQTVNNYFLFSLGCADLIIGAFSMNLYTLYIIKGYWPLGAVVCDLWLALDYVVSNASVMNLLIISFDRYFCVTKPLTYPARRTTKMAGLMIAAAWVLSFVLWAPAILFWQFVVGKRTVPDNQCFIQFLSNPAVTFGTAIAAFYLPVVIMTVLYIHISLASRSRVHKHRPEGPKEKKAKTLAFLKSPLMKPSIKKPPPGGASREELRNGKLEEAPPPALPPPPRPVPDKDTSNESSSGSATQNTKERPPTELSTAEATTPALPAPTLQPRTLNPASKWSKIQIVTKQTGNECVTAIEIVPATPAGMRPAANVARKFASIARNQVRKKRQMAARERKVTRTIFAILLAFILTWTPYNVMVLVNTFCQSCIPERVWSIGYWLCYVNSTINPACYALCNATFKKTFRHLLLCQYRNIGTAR
# Target: Muscarinic acetylcholine receptor M4 (Rattus norvegicus) (UniProt P08485)
# Test: PubChem AID 1757
# Conditions: rat M4 membranes, [3H]NMS radioligand competition binding; at 30 µM (top of the series)
compound,measurement,value
CCOC(=O)N1CCC(NCCNC(=O)c2cccs2)CC1,specific [3H]NMS binding,89.9

# Source: PubChem BioAssay AID1757 (Vanderbilt High Throughput Screening Facility, 2009)
